Experimental data: paper PMC12995475
No constants are given. Whether binding was seen depends on the method and setting. In cells and extracts the contact can be indirect. Some results given as binding are weak or reduced against the parent protein; the word gives no strength. Each block holds one molecule with its values, some of them ahead of it.

Sequences of proteins named here, by UniProt entry; tags and fusion partners are left off.
UniProt P33993: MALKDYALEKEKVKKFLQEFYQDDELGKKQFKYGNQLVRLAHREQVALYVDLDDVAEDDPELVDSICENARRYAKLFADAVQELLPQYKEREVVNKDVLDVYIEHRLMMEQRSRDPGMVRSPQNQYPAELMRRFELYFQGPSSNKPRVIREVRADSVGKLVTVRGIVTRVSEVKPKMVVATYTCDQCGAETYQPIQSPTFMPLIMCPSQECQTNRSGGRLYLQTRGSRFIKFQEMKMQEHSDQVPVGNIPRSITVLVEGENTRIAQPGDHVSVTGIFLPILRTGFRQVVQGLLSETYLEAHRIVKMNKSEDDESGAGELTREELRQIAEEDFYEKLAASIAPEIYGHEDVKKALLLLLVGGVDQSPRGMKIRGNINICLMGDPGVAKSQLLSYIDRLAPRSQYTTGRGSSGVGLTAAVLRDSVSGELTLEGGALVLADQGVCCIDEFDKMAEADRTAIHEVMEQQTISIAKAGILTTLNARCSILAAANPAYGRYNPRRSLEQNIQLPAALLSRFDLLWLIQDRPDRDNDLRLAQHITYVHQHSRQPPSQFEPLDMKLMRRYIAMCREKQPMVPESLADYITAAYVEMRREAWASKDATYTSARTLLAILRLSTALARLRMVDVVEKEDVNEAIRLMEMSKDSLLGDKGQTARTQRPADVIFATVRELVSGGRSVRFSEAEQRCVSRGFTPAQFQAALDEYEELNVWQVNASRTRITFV
UniProt P49736: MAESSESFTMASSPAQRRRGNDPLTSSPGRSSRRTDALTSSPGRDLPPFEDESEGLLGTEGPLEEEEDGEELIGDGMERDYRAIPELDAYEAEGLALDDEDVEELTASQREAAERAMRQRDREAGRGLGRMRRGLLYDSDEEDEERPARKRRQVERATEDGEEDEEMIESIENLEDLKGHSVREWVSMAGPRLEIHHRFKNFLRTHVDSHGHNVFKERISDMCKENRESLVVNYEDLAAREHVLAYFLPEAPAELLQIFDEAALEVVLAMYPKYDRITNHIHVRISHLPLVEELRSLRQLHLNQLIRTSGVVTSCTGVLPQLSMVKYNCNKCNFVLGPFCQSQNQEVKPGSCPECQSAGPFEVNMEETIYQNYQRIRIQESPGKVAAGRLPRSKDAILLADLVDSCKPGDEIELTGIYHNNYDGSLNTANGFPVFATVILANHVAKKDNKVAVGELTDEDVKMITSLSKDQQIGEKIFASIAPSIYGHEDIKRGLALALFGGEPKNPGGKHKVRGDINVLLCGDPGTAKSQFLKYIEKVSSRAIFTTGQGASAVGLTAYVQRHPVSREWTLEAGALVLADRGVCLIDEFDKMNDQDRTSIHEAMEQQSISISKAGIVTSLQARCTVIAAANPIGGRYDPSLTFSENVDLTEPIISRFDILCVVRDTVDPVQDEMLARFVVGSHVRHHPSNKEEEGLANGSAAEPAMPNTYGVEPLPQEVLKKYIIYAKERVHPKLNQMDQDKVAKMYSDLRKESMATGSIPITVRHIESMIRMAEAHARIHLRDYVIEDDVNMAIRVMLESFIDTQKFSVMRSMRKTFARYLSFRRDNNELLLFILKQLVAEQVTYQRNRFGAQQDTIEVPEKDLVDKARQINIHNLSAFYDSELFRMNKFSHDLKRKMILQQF

Key:
[1] = molecular target: T1, Ribonucleotide reductase M1 (regulatory subunit R1), endogenous (human (endogenous in H23, A549, HEK293)) (UniProt P23921); assay: co-IP; endogenous R1 immunoprecipitated (antibodies to RRM1 or control IgG) from H23, A549 and HEK293 whole cell lysates, immunoblotted for MCM2-7; also done in doxycycline-inducible R2 overexpressing (OER2) and control (ORF) cells
T1 sequence: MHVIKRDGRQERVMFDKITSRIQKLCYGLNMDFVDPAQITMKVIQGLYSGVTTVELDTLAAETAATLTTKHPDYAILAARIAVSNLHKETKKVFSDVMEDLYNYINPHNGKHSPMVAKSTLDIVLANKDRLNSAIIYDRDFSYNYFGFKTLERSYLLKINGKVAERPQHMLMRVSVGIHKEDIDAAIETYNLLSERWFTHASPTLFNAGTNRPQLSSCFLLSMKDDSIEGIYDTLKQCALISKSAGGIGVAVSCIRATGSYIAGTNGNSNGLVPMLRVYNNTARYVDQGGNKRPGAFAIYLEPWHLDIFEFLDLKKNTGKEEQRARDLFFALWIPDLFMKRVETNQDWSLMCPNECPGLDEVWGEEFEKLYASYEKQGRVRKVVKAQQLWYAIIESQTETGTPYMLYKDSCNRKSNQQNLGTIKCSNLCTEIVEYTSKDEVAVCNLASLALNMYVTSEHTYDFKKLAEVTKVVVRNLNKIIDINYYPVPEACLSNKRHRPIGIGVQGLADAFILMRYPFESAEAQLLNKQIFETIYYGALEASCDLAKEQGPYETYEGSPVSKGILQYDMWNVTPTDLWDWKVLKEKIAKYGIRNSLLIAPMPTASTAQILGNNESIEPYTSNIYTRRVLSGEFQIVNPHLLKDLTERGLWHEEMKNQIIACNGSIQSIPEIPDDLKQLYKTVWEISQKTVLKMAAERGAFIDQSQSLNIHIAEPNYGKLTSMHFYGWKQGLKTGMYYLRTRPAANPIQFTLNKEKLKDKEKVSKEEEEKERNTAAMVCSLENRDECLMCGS

[2] = molecular target: T2, Ribonucleotide reductase catalytic subunit R2 (human (endogenous in H23, A549, HEK293)) (UniProt P31350); assay: co-IP; "the same technology" as the R1 immunoprecipitation, for R2 or p53R2 and the six MCMs
T2 sequence: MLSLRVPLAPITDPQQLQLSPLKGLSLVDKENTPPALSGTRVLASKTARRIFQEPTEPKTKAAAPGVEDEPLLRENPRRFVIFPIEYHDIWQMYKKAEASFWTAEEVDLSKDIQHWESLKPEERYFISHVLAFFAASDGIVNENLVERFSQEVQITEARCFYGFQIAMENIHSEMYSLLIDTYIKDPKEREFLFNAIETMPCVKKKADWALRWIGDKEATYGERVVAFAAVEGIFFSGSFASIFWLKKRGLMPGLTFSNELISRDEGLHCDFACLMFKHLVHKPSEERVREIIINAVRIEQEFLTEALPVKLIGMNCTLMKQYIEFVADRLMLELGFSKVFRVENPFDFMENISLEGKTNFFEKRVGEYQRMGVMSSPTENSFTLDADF

[3] = molecular target: T3, p53R2 (human (endogenous in H23, A549, HEK293)) (UniProt Q7LG56); assay: as above
T3 sequence: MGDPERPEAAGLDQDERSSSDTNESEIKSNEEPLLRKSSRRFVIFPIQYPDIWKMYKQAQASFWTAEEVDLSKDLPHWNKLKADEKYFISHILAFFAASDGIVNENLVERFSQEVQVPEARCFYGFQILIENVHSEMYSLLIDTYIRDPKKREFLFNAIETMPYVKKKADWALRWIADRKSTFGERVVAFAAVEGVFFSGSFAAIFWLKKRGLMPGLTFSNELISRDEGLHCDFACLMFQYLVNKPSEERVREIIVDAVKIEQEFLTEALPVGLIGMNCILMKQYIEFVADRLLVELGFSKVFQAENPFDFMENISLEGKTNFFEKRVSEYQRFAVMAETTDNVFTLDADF

[4] = molecular target: MCM7, endogenous (human (endogenous in H23, A549, HEK293)) (UniProt P33993); assay: co-IP; reverse immunoprecipitation of each catalytic MCM (4/6/7), R1 detected; MCM7 immunoprecipitation also done in R1 overexpressing (OER1) cells
[5] = molecular target: T4, MCM4, endogenous (human (endogenous in H23, A549, HEK293)) (UniProt P33991); assay: as above
T4 sequence: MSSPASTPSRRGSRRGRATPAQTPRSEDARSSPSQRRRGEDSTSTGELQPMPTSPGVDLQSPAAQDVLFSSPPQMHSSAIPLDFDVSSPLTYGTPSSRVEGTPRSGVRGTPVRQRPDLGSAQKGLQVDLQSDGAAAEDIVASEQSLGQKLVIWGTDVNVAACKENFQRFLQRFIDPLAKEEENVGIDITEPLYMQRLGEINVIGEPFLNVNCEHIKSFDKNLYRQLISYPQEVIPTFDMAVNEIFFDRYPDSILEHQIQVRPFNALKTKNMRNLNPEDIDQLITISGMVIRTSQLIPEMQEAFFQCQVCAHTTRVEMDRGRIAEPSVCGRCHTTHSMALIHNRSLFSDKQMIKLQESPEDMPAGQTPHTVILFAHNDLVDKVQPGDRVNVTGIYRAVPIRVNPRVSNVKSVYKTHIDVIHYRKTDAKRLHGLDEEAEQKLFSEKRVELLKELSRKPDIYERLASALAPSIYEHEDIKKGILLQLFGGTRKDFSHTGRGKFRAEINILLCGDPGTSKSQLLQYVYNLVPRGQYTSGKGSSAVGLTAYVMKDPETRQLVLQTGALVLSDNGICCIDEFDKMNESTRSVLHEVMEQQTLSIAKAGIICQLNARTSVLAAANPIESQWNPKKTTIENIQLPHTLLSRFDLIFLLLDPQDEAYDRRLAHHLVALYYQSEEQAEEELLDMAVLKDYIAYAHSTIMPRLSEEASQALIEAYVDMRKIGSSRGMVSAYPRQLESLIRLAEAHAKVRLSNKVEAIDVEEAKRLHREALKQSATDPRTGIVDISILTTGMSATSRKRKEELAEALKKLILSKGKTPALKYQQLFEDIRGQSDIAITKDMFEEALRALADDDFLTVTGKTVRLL

Molecule: MCM2, endogenous (from UniProt P49736 1-904)
binding [1]: no binding
binding [2]: no binding
binding [3]: no binding

B2: MCM3, endogenous (protein, UniProt P25205 1-808)
chain: MAGTVVLDDVELREAQRDYLDFLDDEEDQGIYQSKVRELISDNQYRLIVNVNDLRRKNEKRANRLLNNAFEELVAFQRALKDFVASIDATYAKQYEEFYVGLEGSFGSKHVSPRTLTSCFLSCVVCVEGIVTKCSLVRPKVVRSVHYCPATKKTIERRYSDLTTLVAFPSSSVYPTKDEENNPLETEYGLSVYKDHQTITIQEMPEKAPAGQLPRSVDVILDDDLVDKAKPGDRVQVVGTYRCLPGKKGGYTSGTFRTVLIACNVKQMSKDAQPSFSAEDIAKIKKFSKTRSKDIFDQLAKSLAPSIHGHDYVKKAILCLLLGGVERDLENGSHIRGDINILLIGDPSVAKSQLLRYVLCTAPRAIPTTGRGSSGVGLTAAVTTDQETGERRLEAGAMVLADRGVVCIDEFDKMSDMDRTAIHEVMEQGRVTIAKAGIHARLNARCSVLAAANPVYGRYDQYKTPMENIGLQDSLLSRFDLLFIMLDQMDPEQDREISDHVLRMHRYRAPGEQDGDAMPLGSAVDILATDDPNFSQEDQQDTQIYEKHDNLLHGTKKKKEKMVSAAFMKKYIHVAKIIKPVLTQESATYIAEEYSRLRSQDSMSSDTARTSPVTARTLETLIRLATAHAKARMSKTVDLQDAEEAVELVQYAYFKKVLEKEKKRKKRSEDESETEDEEEKSQEDQEQKRKRRKTRQPDAKDGDSYDPYDFSDTEEEMPQVHTPKTADSQETKESQKVELSESRLKAFKVALLDVFREAHAQSIGMNRLTESINRDSEEPFSSVEIQAALSKMQDDNQVMVSEGIIFLI
binding [1]: no binding
binding [2]: no binding
binding [3]: no binding

Next, values leading:

binding [2]: no binding
binding [3]: no binding
B1: MCM6, endogenous (protein, UniProt Q14566 1-821)
chain: MDLAAAAEPGAGSQHLEVRDEVAEKCQKLFLDFLEEFQSSDGEIKYLQLAEELIRPERNTLVVSFVDLEQFNQQLSTTIQEEFYRVYPYLCRALKTFVKDRKEIPLAKDFYVAFQDLPTRHKIRELTSSRIGLLTRISGQVVRTHPVHPELVSGTFLCLDCQTVIRDVEQQFKYTQPNICRNPVCANRRRFLLDTNKSRFVDFQKVRIQETQAELPRGSIPRSLEVILRAEAVESAQAGDKCDFTGTLIVVPDVSKLSTPGARAETNSRVSGVDGYETEGIRGLRALGVRDLSYRLVFLACCVAPTNPRFGGKELRDEEQTAESIKNQMTVKEWEKVFEMSQDKNLYHNLCTSLFPTIHGNDEVKRGVLLMLFGGVPKTTGEGTSLRGDINVCIVGDPSTAKSQFLKHVEEFSPRAVYTSGKASSAAGLTAAVVRDEESHEFVIEAGALMLADNGVCCIDEFDKMDVRDQVAIHEAMEQQTISITKAGVKATLNARTSILAAANPISGHYDRSKSLKQNINLSAPIMSRFDLFFILVDECNEVTDYAIARRIVDLHSRIEESIDRVYSLDDIRRYLLFARQFKPKISKESEDFIVEQYKHLRQRDGSGVTKSSWRITVRQLESMIRLSEAMARMHCCDEVQPKHVKEAFRLLNKSIIRVETPDVNLDQEEEIQMEVDEGAGGINGHADSPAPVNGINGYNEDINQESAPKASLRLGFSEYCRISNLIVLHLRKVEEEEDESALKRSELVNWYLKEIESEIDSEEELINKKRIIEKVIHRLTHYDHVLIELTQAGLKGSTEGSESYEEDPYLVVNPNYLLED

binding [4]: binds
binding [5]: binds
B3: Ribonucleotide reductase M1 (regulatory subunit R1), endogenous (protein, UniProt P23921 1-792)
chain: T1 sequence

binding [1]: no binding
binding [2]: no binding
binding [3]: no binding
B4: MCM5, endogenous (protein, UniProt P33992 1-734)
chain: MSGFDDPGIFYSDSFGGDAQADEGQARKSQLQRRFKEFLRQYRVGTDRTGFTFKYRDELKRHYNLGEYWIEVEMEDLASFDEDLADYLYKQPAEHLQLLEEAAKEVADEVTRPRPSGEEVLQDIQVMLKSDASPSSIRSLKSDMMSHLVKIPGIIIAASAVRAKATRISIQCRSCRNTLTNIAMRPGLEGYALPRKCNTDQAGRPKCPLDPYFIMPDKCKCVDFQTLKLQELPDAVPHGEMPRHMQLYCDRYLCDKVVPGNRVTIMGIYSIKKFGLTTSRGRDRVGVGIRSSYIRVLGIQVDTDGSGRSFAGAVSPQEEEEFRRLAALPNVYEVISKSIAPSIFGGTDMKKAIACLLFGGSRKRLPDGLTRRGDINLLMLGDPGTAKSQLLKFVEKCSPIGVYTSGKGSSAAGLTASVMRDPSSRNFIMEGGAMVLADGGVVCIDEFDKMREDDRVAIHEAMEQQTISIAKAGITTTLNSRCSVLAAANSVFGRWDETKGEDNIDFMPTILSRFDMIFIVKDEHNEERDVMLAKHVITLHVSALTQTQAVEGEIDLAKLKKFIAYCRVKCGPRLSAEAAEKLKNRYIIMRSGARQHERDSDRRSSIPITVRQLEAIVRIAEALSKMKLQPFATEADVEEALRLFQVSTLDAALSGTLSGVEGFTSQEDQEMLSRIEKQLKRRFAIGSQVSEHSIIKDFTKQKYPEHAIHKVLQLMLRRGEIQHRMQRKVLYRLK
